Peptide text beside a SMILES is read from it.
Key:
[1] = Intrinsic tryptophan fluorescence and acrylamide quenching, free peptide; type: physicochemical; conditions: for Intrinsic tryptophan emission maxima λmax, Free: 5 μM peptide, 10 mM sodium phosphate buffer, excitation 280 nm; for Stern-Volmer constant (Ksv), Free: acrylamide quenching of Trp, free peptide in buffer
[2] = tested on: LPS micelles; experiment: Intrinsic tryptophan fluorescence and acrylamide quenching in LPS; type: binding, E. coli 0111:B4; conditions: for Intrinsic tryptophan emission maxima λmax, LPS: 5 μM peptide with LPS micelles, excitation 280 nm; for Stern-Volmer constant (Ksv), LPS: acrylamide quenching of Trp, peptide/LPS complex
[3] = tested on: DPC micelles; experiment: Intrinsic tryptophan fluorescence and acrylamide quenching in DPC; type: binding; conditions: for Intrinsic tryptophan emission maxima λmax, DPC: 5 μM peptide with DPC micelles, excitation 280 nm; for Stern-Volmer constant (Ksv), DPC: acrylamide quenching of Trp, peptide/DPC complex
[4] = tested on: LPS micelles; experiment: Isothermal titration calorimetry; type: binding, E. coli 0111:B4; conditions: ITC; for ΔH: 10 μM LPS, pH 7.0, 25 °C; for TΔS / ΔG: 25 °C; for TΔS: TΔS = (ΔH − ΔG); for ΔG: ΔG = −RTlnKa
Experimental: Isothermal titration calorimetry: Binding of designed peptides with LPS micelles was determined using isothermal titration calorimetry in VP-ITC micro calorimeter (Microcal Inc, Northampton, MA, USA). Peptides and LPS samples were dissolved in 10 mM phosphate buffer, pH 7.0 and filtered. LPS at a concentration of 10 μM was loaded into the sample cell and the reference cell was filled with the same buffer. The syringe was filled with 1mM peptide solution. Typically 30 injections of 3.5 μL of the peptides were made into the sample cell at 25 °C. Sample cell was stirred continuously at 300 rpm. Raw data were obtained and analyzed using single site binding model in Microcal Origin 5.0 software. Association constant (Ka) and enthalpy change (ΔH) were directly determined from ITC profiles. Dissociation constant was calculated from Kd = 1/Ka. ΔG and TΔS were estimated from the fundamental equations of thermodynamics, ΔG = −RTlnKa and TΔS = (ΔH − ΔG), respectively.

Compound	Intrinsic tryptophan emission maxima λmax, Free [1]	Stern-Volmer constant (Ksv), Free [1]	Intrinsic tryptophan emission maxima λmax, LPS [2]	Stern-Volmer constant (Ksv), LPS [2]	Intrinsic tryptophan emission maxima λmax, DPC [3]	Stern-Volmer constant (Ksv), DPC [3]	ΔH [4]	TΔS [4]	ΔG [4]
CCCC(=O)N[C@@H](Cc1ccc(O)cc1)C(=O)N[C@H](C(=O)N[C@@H](CC(C)C)C(=O)N[C@@H](Cc1c[nH]c2ccccc12)C(=O)N[C@@H](CCCCN)C(=O)N[C@@H](CCCNC(=N)N)C(=O)N[C@@H](CCCCN)C(=O)N[C@@H](CCCNC(=N)N)C(=O)N[C@@H](CCCCN)C(=O)N[C@@H](Cc1ccccc1)C(=O)N[C@@H](CSSC[C@H](NC(=O)[C@H](Cc1ccccc1)NC(=O)[C@H](CCCCN)NC(=O)[C@H](CCCNC(=N)N)NC(=O)[C@H](CCCCN)NC(=O)[C@H](CCCNC(=N)N)NC(=O)[C@H](CCCCN)NC(=O)[C@H](Cc1c[nH]c2ccccc12)NC(=O)[C@H](CC(C)C)NC(=O)[C@@H](NC(=O)[C@H](Cc1ccc(O)cc1)NC(=O)CCC)C(C)C)C(=O)N[C@@H](Cc1ccccc1)C(=O)N[C@H](C(N)=O)[C@@H](C)CC)C(=O)N[C@@H](Cc1ccccc1)C(=O)N[C@H](C(N)=O)[C@@H](C)CC)C(C)C [C4YI13C] (HELM PEPTIDE1{[CCCC(=O)[*:2]].Y.V.L.W.K.R.K.R.K.F.C.F.I.[am]}|PEPTIDE2{[CCCC(=O)[*:2]].Y.V.L.W.K.R.K.R.K.F.C.F.I.[am]}$PEPTIDE1,PEPTIDE2,12:R3-12:R3$$$V2.0)	358 nm	37.9	338 nm	5.8	348 nm	11.3	3.0 kcal/mol	11.6 kcal.mol^−1deg^−1	-8.6 kcal/mol
CCCCCCCC(=O)N[C@@H](Cc1ccc(O)cc1)C(=O)N[C@H](C(=O)N[C@@H](CC(C)C)C(=O)N[C@@H](Cc1c[nH]c2ccccc12)C(=O)N[C@@H](CCCCN)C(=O)N[C@@H](CCCNC(=N)N)C(=O)N[C@@H](CCCCN)C(=O)N[C@@H](CCCNC(=N)N)C(=O)N[C@@H](CCCCN)C(=O)N[C@@H](Cc1ccccc1)C(=O)N[C@@H](CSSC[C@H](NC(=O)[C@H](Cc1ccccc1)NC(=O)[C@H](CCCCN)NC(=O)[C@H](CCCNC(=N)N)NC(=O)[C@H](CCCCN)NC(=O)[C@H](CCCNC(=N)N)NC(=O)[C@H](CCCCN)NC(=O)[C@H](Cc1c[nH]c2ccccc12)NC(=O)[C@H](CC(C)C)NC(=O)[C@@H](NC(=O)[C@H](Cc1ccc(O)cc1)NC(=O)CCCCCCC)C(C)C)C(=O)N[C@@H](Cc1ccccc1)C(=O)N[C@H](C(N)=O)[C@@H](C)CC)C(=O)N[C@@H](Cc1ccccc1)C(=O)N[C@H](C(N)=O)[C@@H](C)CC)C(C)C [C8YI13C] (HELM PEPTIDE1{[CCCCCCCC(=O)[*:2]].Y.V.L.W.K.R.K.R.K.F.C.F.I.[am]}|PEPTIDE2{[CCCCCCCC(=O)[*:2]].Y.V.L.W.K.R.K.R.K.F.C.F.I.[am]}$PEPTIDE1,PEPTIDE2,12:R3-12:R3$$$V2.0)	356 nm	23.3	334 nm	5.0	344 nm	11.2	–	–	–
CC[C@H](C)[C@H](NC(=O)[C@H](Cc1ccccc1)NC(=O)[C@H](CSSC[C@H](NC(=O)[C@H](Cc1ccccc1)NC(=O)[C@H](CCCCN)NC(=O)[C@H](CCCNC(=N)N)NC(=O)[C@H](CCCCN)NC(=O)[C@H](CCCNC(=N)N)NC(=O)[C@H](CCCCN)NC(=O)[C@H](Cc1c[nH]c2ccccc12)NC(=O)[C@H](CC(C)C)NC(=O)[C@@H](NC(=O)[C@@H](N)Cc1ccc(O)cc1)C(C)C)C(=O)N[C@@H](Cc1ccccc1)C(=O)N[C@H](C(N)=O)[C@@H](C)CC)NC(=O)[C@H](Cc1ccccc1)NC(=O)[C@H](CCCCN)NC(=O)[C@H](CCCNC(=N)N)NC(=O)[C@H](CCCCN)NC(=O)[C@H](CCCNC(=N)N)NC(=O)[C@H](CCCCN)NC(=O)[C@H](Cc1c[nH]c2ccccc12)NC(=O)[C@H](CC(C)C)NC(=O)[C@@H](NC(=O)[C@@H](N)Cc1ccc(O)cc1)C(C)C)C(N)=O [YI13C] (HELM PEPTIDE1{Y.V.L.W.K.R.K.R.K.F.C.F.I.[am]}|PEPTIDE2{Y.V.L.W.K.R.K.R.K.F.C.F.I.[am]}$PEPTIDE1,PEPTIDE2,11:R3-11:R3$$$V2.0)	356 nm	43.1	339 nm	6.0	354 nm	11.1	4.6 kcal/mol	13.6 kcal.mol^−1deg^−1	-9.03 kcal/mol
